From patent publication US8946144B2 (The Medicines Company, priority 2006, dated 2015)

Experiment: Bone powder binding, microbiological assay of supernatant
Settings: 1 mg/ml compound in bone meal powder slurry 10 mg/ml in PBS, 37° C., 1 h

Structure (SMILES) | % Bone binding [%]
CNC(CC(C)C)C(=O)NC1C(=O)NC(CC(N)=O)C(=O)NC2C(=O)NC3C(=O)NC(C(=O)NC(C(=O)OCC(=O)NC(P(=O)(O)O)P(=O)(O)O)c4cc(O)cc(O)c4-c4cc3ccc4O)C(O)c3ccc(c(Cl)c3)Oc3cc2cc(c3OC2OC(CO)C(O)C(O)C2OC2CC(C)(N)C(O)C(C)O2)Oc2ccc(cc2Cl)C1O (stereo not shown) [Compound 18] | 96.5
CNC(CC(C)C)C(=O)NC1C(=O)NC(CC(N)=O)C(=O)NC2C(=O)NC3C(=O)NC(C(=O)NC(C(=O)OCC(=O)Nc4ccc(CC(P(=O)(O)O)P(=O)(O)O)cc4)c4cc(O)cc(O)c4-c4cc3ccc4O)C(O)c3ccc(c(Cl)c3)Oc3cc2cc(c3OC2OC(CO)C(O)C(O)C2OC2CC(C)(N)C(O)C(C)O2)Oc2ccc(cc2Cl)C1O (stereo not shown) [Compound 21] | 96.7
CC(C)C[C@H](C(=O)N[C@H]1C(=O)N[C@@H](CC(N)=O)C(=O)N[C@H]2C(=O)N[C@H]3C(=O)N[C@H](C(=O)N[C@H](C(=O)O)c4cc(O)cc(O)c4-c4cc3ccc4O)[C@H](O[C@H]3C[C@](C)(N)[C@@H](O)[C@H](C)O3)c3ccc(c(Cl)c3)Oc3cc2cc(c3O[C@@H]2O[C@H](CO)[C@@H](O)[C@H](O)[C@H]2O[C@H]2C[C@](C)(NCc3ccc(-c4ccc(Cl)cc4)cc3)[C@@H](O)[C@H](C)O2)Oc2ccc(cc2Cl)[C@H]1O)N(C)C(=O)CCC(P(=O)(O)O)P(=O)(O)O [Compound 39] | 99.8
CC(C)C[C@H](C(=O)N[C@H]1C(=O)N[C@@H](CC(N)=O)C(=O)N[C@H]2C(=O)N[C@H]3C(=O)N[C@H](C(=O)N[C@H](C(=O)O)c4cc(O)cc(O)c4-c4cc3ccc4O)[C@H](O[C@H]3C[C@](C)(N)[C@@H](O)[C@H](C)O3)c3ccc(c(Cl)c3)Oc3cc2cc(c3O[C@@H]2O[C@H](CO)[C@@H](O)[C@H](O)[C@H]2O[C@H]2C[C@](C)(NCc3ccc(-c4ccc(Cl)cc4)cc3)[C@@H](O)[C@H](C)O2)Oc2ccc(cc2Cl)[C@H]1O)N(C)C(=O)OCOC(=O)CCCC(P(=O)(O)O)P(=O)(O)O [Compound 60] | 99.9
CC(C)C[C@H](C(=O)N[C@H]1C(=O)N[C@@H](CC(N)=O)C(=O)N[C@H]2C(=O)N[C@H]3C(=O)N[C@H](C(=O)N[C@H](C(=O)O)c4cc(O)cc(O)c4-c4cc3ccc4O)[C@H](O[C@H]3C[C@](C)(N)[C@@H](O)[C@H](C)O3)c3ccc(c(Cl)c3)Oc3cc2cc(c3O[C@@H]2O[C@H](CO)[C@@H](O)[C@H](O)[C@H]2O[C@H]2C[C@](C)(NCc3ccc(-c4ccc(Cl)cc4)cc3)[C@@H](O)[C@H](C)O2)Oc2ccc(cc2Cl)[C@H]1O)N(C)C(=O)OCOC(=O)CCC(P(=O)(O)O)P(=O)(O)O.O=C(O)C(F)(F)F.O=C(O)C(F)(F)F [Compound 65] | 96.9
CN[C@H](CC(C)C)C(=O)N[C@H]1C(=O)N[C@@H](CC(N)=O)C(=O)N[C@H]2C(=O)N[C@H]3C(=O)N[C@H](C(=O)N[C@H](C(=O)O)c4cc(O)cc(O)c4-c4cc3ccc4O)[C@H](O[C@H]3C[C@](C)(N)[C@@H](O)[C@H](C)O3)c3ccc(c(Cl)c3)Oc3cc2cc(c3O[C@@H]2O[C@H](CO)[C@@H](O)[C@H](O)[C@H]2O[C@H]2C[C@](C)(NCc3ccc(-c4ccc(Cl)cc4)cc3)[C@@H](O)[C@H](C)O2)Oc2ccc(cc2Cl)[C@H]1O [Oritavancin, oritavancin, reference compound] | 0
CN[C@H](CC(C)C)C(=O)N[C@H]1C(=O)N[C@@H](CC(N)=O)C(=O)N[C@H]2C(=O)N[C@H]3C(=O)N[C@H](C(=O)N[C@H](C(=O)O)c4cc(O)cc(O)c4-c4cc3ccc4O)[C@H](O)c3ccc(c(Cl)c3)Oc3cc2cc(c3O[C@@H]2O[C@H](CO)[C@@H](O)[C@H](O)[C@H]2O[C@H]2C[C@](C)(N)[C@H](O)[C@H](C)O2)Oc2ccc(cc2Cl)[C@H]1O [Vancomycin, vancomycin, reference compound] | 0
